No constants are given. Whether binding was seen depends on the method and setting. Binding seen in cells or lysates may run through a third protein. Some entries that bind do so weakly or less than the wild type. Tags and fused reporters may be left off the sequences shown.
Target: T1, N-terminally 3xHA-tagged human RXFP3 (relaxin family peptide 3 receptor) (human) (UniProt Q9NSD7)
T1 sequence: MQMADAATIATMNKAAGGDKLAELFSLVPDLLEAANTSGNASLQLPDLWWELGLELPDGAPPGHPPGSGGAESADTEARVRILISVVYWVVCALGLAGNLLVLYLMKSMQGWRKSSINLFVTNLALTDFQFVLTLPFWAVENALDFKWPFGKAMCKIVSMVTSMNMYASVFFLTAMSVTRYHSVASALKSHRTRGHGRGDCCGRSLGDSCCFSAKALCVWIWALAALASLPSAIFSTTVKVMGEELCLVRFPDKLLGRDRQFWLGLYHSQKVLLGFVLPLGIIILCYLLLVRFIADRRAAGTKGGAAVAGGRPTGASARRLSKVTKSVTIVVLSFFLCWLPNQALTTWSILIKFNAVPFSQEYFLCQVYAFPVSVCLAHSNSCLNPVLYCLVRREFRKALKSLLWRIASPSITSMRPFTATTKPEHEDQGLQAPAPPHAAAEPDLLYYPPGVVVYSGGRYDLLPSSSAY
Assay: co-IP; anti-HA affinity beads, eluted in Laemmli buffer, immunoblot

Protein sequences, listed by entry. Tags and fused reporters are not part of them.
UniProt P78527: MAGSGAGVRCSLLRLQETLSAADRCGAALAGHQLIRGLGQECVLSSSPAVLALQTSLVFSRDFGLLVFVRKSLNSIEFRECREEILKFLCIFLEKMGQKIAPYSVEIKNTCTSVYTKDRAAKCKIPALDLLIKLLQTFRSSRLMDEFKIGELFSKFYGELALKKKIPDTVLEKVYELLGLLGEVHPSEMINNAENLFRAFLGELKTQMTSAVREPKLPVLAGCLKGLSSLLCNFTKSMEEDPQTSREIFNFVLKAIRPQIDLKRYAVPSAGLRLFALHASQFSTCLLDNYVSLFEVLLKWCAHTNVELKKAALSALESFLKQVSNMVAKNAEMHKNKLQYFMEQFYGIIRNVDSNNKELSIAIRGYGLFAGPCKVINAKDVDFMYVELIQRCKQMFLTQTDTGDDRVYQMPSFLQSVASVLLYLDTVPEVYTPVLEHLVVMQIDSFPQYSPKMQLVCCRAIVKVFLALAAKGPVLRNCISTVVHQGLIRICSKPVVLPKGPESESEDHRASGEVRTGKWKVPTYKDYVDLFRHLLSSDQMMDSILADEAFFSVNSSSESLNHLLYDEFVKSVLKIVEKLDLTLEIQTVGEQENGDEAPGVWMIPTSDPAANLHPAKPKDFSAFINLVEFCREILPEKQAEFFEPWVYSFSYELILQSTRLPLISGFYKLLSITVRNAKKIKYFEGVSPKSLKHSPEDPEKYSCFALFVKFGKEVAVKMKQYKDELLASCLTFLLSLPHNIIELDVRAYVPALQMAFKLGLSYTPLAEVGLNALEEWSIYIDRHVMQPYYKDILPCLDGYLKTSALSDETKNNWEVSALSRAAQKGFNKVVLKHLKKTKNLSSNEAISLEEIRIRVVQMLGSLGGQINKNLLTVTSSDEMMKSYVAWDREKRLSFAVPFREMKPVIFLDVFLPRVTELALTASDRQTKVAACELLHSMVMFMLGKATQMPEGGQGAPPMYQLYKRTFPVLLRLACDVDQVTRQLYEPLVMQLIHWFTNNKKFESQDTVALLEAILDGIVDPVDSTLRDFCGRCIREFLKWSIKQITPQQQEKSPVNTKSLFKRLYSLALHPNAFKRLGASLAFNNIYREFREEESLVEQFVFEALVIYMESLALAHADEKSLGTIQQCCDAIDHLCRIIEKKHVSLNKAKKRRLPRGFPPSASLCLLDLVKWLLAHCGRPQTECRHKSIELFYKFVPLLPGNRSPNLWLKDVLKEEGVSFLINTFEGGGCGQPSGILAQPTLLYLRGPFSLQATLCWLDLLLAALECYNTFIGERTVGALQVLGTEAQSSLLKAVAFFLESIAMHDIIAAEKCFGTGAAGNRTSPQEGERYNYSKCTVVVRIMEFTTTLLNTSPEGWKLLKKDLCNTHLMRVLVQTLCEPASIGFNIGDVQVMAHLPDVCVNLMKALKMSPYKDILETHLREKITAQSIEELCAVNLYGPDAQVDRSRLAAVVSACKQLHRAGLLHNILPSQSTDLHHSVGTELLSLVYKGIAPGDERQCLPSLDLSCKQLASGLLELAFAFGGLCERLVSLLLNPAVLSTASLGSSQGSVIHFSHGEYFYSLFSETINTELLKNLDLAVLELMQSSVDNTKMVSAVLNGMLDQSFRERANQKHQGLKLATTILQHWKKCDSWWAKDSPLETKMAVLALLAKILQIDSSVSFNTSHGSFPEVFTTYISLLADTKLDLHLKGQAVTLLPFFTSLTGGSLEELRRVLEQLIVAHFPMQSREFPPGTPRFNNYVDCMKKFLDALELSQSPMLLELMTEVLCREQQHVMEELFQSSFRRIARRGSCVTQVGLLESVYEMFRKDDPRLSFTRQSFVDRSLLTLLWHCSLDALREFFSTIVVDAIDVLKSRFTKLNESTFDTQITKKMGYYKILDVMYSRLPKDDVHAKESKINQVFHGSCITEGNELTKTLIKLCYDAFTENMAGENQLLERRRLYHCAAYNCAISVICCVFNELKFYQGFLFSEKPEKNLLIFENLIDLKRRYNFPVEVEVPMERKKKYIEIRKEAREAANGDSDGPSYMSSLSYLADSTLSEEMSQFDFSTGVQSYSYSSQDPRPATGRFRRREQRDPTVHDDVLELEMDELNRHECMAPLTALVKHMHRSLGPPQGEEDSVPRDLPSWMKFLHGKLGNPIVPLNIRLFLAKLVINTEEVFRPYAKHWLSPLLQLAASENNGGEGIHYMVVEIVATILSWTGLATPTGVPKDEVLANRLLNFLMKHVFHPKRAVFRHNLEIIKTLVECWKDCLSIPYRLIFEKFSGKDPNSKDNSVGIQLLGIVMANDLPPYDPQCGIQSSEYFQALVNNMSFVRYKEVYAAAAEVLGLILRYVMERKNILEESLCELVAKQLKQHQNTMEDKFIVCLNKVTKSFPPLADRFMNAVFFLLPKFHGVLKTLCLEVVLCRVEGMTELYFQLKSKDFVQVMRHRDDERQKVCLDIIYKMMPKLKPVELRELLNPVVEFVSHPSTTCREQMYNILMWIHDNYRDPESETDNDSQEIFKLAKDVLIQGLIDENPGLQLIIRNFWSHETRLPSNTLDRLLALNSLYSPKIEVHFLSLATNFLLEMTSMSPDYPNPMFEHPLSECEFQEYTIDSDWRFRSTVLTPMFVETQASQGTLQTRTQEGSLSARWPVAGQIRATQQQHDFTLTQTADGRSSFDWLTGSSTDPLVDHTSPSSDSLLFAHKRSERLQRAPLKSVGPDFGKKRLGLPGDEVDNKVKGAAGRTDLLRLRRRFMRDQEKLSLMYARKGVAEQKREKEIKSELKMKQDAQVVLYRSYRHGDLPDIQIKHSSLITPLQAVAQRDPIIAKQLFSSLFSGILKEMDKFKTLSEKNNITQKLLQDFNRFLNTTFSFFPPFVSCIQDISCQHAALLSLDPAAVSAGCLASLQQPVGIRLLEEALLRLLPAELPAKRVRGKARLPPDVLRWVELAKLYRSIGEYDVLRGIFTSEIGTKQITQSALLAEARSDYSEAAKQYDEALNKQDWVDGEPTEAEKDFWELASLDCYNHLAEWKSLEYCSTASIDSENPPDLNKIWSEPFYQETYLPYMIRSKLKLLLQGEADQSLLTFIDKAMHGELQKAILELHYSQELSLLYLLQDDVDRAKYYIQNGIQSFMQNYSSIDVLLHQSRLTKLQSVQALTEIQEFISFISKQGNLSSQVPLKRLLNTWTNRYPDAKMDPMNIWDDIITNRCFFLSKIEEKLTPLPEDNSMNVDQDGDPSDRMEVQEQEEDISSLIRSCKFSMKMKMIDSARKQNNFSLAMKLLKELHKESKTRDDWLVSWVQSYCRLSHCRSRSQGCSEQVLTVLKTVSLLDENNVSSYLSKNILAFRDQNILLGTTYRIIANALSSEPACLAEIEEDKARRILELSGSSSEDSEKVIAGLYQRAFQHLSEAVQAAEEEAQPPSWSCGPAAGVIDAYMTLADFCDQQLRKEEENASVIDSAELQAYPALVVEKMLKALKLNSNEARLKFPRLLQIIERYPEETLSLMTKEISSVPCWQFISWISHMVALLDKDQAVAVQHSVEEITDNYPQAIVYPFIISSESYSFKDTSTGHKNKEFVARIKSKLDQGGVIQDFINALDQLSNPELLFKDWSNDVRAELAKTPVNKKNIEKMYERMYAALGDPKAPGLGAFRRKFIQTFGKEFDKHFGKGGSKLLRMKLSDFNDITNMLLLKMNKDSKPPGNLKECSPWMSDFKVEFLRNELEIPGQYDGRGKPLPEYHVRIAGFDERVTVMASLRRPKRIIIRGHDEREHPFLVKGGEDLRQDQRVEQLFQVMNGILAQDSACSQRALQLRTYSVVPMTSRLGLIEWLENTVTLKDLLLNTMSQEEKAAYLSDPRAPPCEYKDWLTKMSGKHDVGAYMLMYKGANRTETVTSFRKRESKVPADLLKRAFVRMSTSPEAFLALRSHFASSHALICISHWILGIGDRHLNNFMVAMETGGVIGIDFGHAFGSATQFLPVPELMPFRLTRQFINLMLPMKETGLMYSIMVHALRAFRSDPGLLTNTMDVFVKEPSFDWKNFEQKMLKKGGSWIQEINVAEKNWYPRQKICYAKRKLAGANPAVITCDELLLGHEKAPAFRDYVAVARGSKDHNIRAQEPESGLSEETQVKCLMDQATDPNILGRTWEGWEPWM

binding: binds
Substance: activated PRKDC (pPRKDC) (from UniProt P78527 1-4128)

— PMC6932917
